Results are given in words; binding and its absence hold for the method and conditions named. Binding seen in cells or lysates may run through a third protein. Some entries that bind do so weakly or less than the wild type. For some assays here: Tags and fused reporters may be left off the sequences shown.

The text below walks through data of article PMC9443502.

The target in one test is T1, DEPDC1-V5 (UniProt Q5TB30).
T1 sequence: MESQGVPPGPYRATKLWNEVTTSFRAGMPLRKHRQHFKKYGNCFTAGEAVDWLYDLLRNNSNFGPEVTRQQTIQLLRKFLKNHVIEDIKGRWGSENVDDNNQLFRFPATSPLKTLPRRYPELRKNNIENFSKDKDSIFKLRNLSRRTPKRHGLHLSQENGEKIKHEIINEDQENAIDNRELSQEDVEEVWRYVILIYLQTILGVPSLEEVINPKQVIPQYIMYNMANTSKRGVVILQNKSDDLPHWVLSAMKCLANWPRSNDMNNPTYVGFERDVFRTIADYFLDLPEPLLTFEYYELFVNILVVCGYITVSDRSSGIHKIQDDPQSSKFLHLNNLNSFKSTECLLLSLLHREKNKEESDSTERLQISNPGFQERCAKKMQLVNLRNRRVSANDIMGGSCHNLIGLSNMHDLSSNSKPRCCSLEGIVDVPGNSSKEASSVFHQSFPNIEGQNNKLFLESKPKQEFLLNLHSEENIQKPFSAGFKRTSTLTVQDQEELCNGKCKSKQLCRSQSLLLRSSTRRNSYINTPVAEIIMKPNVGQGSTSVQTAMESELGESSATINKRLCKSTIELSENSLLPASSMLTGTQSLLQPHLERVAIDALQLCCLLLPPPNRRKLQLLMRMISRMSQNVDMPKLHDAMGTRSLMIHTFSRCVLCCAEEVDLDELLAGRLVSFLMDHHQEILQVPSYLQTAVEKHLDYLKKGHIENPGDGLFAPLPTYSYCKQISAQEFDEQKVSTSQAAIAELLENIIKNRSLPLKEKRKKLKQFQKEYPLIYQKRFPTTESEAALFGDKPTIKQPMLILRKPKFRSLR
The experiment in a line: co-IP; HEK293T cells co-transfected with DEPDC1-V5 and FOXM1-Flag; RIPA lysate; antibodies (anti-V5, anti-DEPDC1, anti-FOXM1, anti-FLAG, normal IgG) and protein G beads, 4 °C overnight; four RIPA washes; Western blot; forward and reverse precipitation.

The target of test [1] is T2, endogenous DEPDC1 (human (endogenous in SCC-25)) (UniProt Q5TB30).
T2 sequence: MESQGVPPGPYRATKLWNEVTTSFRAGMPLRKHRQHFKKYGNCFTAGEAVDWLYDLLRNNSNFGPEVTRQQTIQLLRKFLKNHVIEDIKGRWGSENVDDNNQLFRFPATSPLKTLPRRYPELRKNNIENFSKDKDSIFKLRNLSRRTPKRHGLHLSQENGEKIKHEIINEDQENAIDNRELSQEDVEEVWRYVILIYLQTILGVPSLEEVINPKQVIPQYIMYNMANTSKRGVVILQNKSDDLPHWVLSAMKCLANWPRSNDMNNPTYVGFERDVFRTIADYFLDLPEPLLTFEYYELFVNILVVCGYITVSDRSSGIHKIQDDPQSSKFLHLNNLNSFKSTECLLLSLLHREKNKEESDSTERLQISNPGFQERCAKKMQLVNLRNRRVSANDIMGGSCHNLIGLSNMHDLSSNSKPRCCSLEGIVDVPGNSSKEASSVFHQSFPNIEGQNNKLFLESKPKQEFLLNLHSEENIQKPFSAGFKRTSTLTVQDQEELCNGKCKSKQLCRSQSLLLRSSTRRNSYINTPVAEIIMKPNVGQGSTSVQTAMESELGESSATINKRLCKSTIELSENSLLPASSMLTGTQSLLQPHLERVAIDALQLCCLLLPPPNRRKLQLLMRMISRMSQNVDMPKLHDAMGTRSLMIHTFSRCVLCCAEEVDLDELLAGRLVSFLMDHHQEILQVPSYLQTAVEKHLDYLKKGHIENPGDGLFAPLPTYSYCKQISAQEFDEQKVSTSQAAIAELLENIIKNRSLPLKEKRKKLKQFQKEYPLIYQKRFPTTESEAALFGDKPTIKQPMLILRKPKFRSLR
The experiment in a line: co-IP; endogenous proteins in SCC-25 cell lysate; Western blot. For orientation: In western blotting, separated proteins are transferred to a membrane and probed.

B1: FOXM1-Flag (protein, UniProt Q08050 1-763)
chain: MKTSPRRPLILKRRRLPLPVQNAPSETSEEEPKRSPAQQESNQAEASKEVAESNSCKFPAGIKIINHPTMPNTQVVAIPNNANIHSIITALTAKGKESGSSGPNKFILISCGGAPTQPPGLRPQTQTSYDAKRTEVTLETLGPKPAARDVNLPRPPGALCEQKRETCADGEAAGCTINNSLSNIQWLRKMSSDGLGSRSIKQEMEEKENCHLEQRQVKVEEPSRPSASWQNSVSERPPYSYMAMIQFAINSTERKRMTLKDIYTWIEDHFPYFKHIAKPGWKNSIRHNLSLHDMFVRETSANGKVSFWTIHPSANRYLTLDQVFKPLDPGSPQLPEHLESQQKRPNPELRRNMTIKTELPLGARRKMKPLLPRVSSYLVPIQFPVNQSLVLQPSVKVPLPLAASLMSSELARHSKRVRIAPKVLLAEEGIAPLSSAGPGKEEKLLFGEGFSPLLPVQTIKEEEIQPGEEMPHLARPIKVESPPLEEWPSPAPSFKEESSHSWEDSSQSPTPRPKKSYSGLRSPTRCVSEMLVIQHRERRERSRSRRKQHLLPPCVDEPELLFSEGPSTSRWAAELPFPADSSDPASQLSYSQEVGGPFKTPIKETLPISSTPSKSVLPRTPESWRLTPPAKVGGLDFSPVQTSQGASDPLPDPLGLMDLSTTPLQSAPPLESPQRLLSSEPLDLISVPFGNSSPSDIDVPKPGSPEPQVSGLAANRSLTEGLVLDTMNDSLSKILLDISFPGLDEDPLGPDNINWSQFIPELQ
B1: the binding entry with DEPDC1-V5 is recorded as “binds”.

B2: endogenous FOXM1 (protein, UniProt Q08050 1-763)
chain: MKTSPRRPLILKRRRLPLPVQNAPSETSEEEPKRSPAQQESNQAEASKEVAESNSCKFPAGIKIINHPTMPNTQVVAIPNNANIHSIITALTAKGKESGSSGPNKFILISCGGAPTQPPGLRPQTQTSYDAKRTEVTLETLGPKPAARDVNLPRPPGALCEQKRETCADGEAAGCTINNSLSNIQWLRKMSSDGLGSRSIKQEMEEKENCHLEQRQVKVEEPSRPSASWQNSVSERPPYSYMAMIQFAINSTERKRMTLKDIYTWIEDHFPYFKHIAKPGWKNSIRHNLSLHDMFVRETSANGKVSFWTIHPSANRYLTLDQVFKPLDPGSPQLPEHLESQQKRPNPELRRNMTIKTELPLGARRKMKPLLPRVSSYLVPIQFPVNQSLVLQPSVKVPLPLAASLMSSELARHSKRVRIAPKVLLAEEGIAPLSSAGPGKEEKLLFGEGFSPLLPVQTIKEEEIQPGEEMPHLARPIKVESPPLEEWPSPAPSFKEESSHSWEDSSQSPTPRPKKSYSGLRSPTRCVSEMLVIQHRERRERSRSRRKQHLLPPCVDEPELLFSEGPSTSRWAAELPFPADSSDPASQLSYSQEVGGPFKTPIKETLPISSTPSKSVLPRTPESWRLTPPAKVGGLDFSPVQTSQGASDPLPDPLGLMDLSTTPLQSAPPLESPQRLLSSEPLDLISVPFGNSSPSDIDVPKPGSPEPQVSGLAANRSLTEGLVLDTMNDSLSKILLDISFPGLDEDPLGPDNINWSQFIPELQ
As for B2, the binding entry in test [1] was “binds”.
